From publication PMC10893061, “Novel 2,5-Diketopiperazines with In Vitro Activities against Protozoan Parasites of Tropical Diseases” (Pharmaceuticals, 2024)

Key:
[1] = tested on: T. cruzi Tulahuen strain in L929 cells; test: Anti-Trypanosoma cruzi activity assay (infected L929 cells, beta-galactosidase reporter); type: cell-based; conditions: CC50 L929 cells/IC50 T. cruzi
Method: Their half-maximum cytotoxic concentrations (CC50) and their selectivity indices (SI), obtained as the ratio of the cytotoxic concentration against the bioactive concentration are shown in Table 2. Theoretically, the higher the SI value, the greater the effectiveness for the target and the lower the toxicity of the compound, characterizing a potentially safe and selective drug.
The in vitro anti-T. cruzi activity was evaluated on L929 cells (mouse fibroblasts) infected with Tulahuen strain of the parasite expressing the Escherichia coli β-galactosidase as reporter gene according to the method described previously. Briefly, four thousand L929 cells were added to each well of a 96-well microtiter plate. After an overnight incubation, a 10 fold excess of trypomastigotes were added to the cells, incubated for 2 h, then replaced with 200 μL of fresh medium and incubated for additional 48 h to establish the infection. For IC50 determination, the cells were exposed to each synthesized compound at serial decreasing dilutions and the plate was incubated for 96 h. Afterwards, 50 μL of 500 μM chlorophenol red beta-D-galactopyranoside (CPRG) in 0.5% Nonidet P40 was added to each well, and the plate incubated for 16 to 20 h, after which the absorbance at 570 nm was measured. Controls with uninfected cells, untreated infected cells, infected cells treated with benznidazole at 3.8 μM (positive control) or 1% DMSO were used. The results were expressed as the percentage of T. cruzi growth inhibition in compound tested cells as compared to the infected cells and untreated cells. The IC50 values were calculated by linear interpolation. Quadruplicates were run in the same plate, and the experiments were repeated at least once.
IC50 over T. cruzi and L929 cells were determined by linear interpolation and the selectivity index (SI) was calculated by the ratio of CC50 L929 cells/ IC50 T. cruzi.

[2] = tested on: P. falciparum chloroquine-resistant and mefloquine-sensitive W2 clone; test: Anti-Plasmodium falciparum activity assay (SYBR, erythrocytic asexual stages); type: cell-based; conditions: CC50 (BGM)/IC50 (P. falciparum)
Method: In vitro assay with P. falciparum culture were performed as described previously. […] The activity was measured using the SYBR assay with the parasite suspension (0.5% parasitemia and 2% hematocrit) with minor modifications. The test compounds, in serial dilutions, were incubated in “U” bottom 96-wells plates. After 48 h at 37 °C, the culture supernatant was removed and replaced by 100 µL of lysis buffer solution [Tris (20 mM; pH 7.5), EDTA (5 mM), saponin (0.008%; wt/vol), and Triton X 100 (0.08%; vol/vol)] followed by addition of 0.2 µL/mL SYBR Safe (Sigma-Aldrich, Carlsbad, CA, USA). The plate content was transferred to a flat bottom plate and incubated in the dark for 30 min. The plate was read in a fluorometer (Synergy H4 Hibrid Reader, Biotek) with excitation at 485 nm and 535 nm of emission. In all tests, the compound activities were expressed by the 50% inhibitory concentration of the parasite growth (IC50) when compared to the drug-free controls and estimated using the curve-fitting software Origin 8.0 (OriginLab Corporation, Northampton, MA, USA).

Structure (SMILES) | SI [1] | SI [2]
O=C1C(c2c(F)cccc2Cl)N(c2ccccc2)C(=O)CN1c1ccc(Cl)cc1 (stereo not shown) [Compound 22] | > 50 and >56 | 
COc1ccc(C2C(=O)N(c3ccc(Cl)cc3)CC(=O)N2c2ccccc2)cc1Br (stereo not shown) [Compound 8] | > 50 and >55 | 
O=C1C(c2ccccc2F)N(c2ccc(F)cc2)C(=O)CN1c1ccc(Cl)cc1 (stereo not shown) [Compound 20] | 2 | <1
O=C1C(c2ccccc2F)N(c2ccccc2)C(=O)CN1c1ccc(Cl)cc1 (stereo not shown) [Compound 5] | 3 | <1
O=C(Cn1ccnc1[N+](=O)[O-])NCc1ccccc1 [Benznidazole, reference compound] | 1080 | 
O=C1C(c2ccc(O)c(Br)c2)N(c2ccccc2)C(=O)CN1c1ccc(Cl)cc1 (stereo not shown) [Compound 15] | 7 | 1
O=C1C(c2ccc(Cl)cc2)N(c2ccc(F)cc2)C(=O)CN1c1ccc(Cl)cc1 (stereo not shown) [Compound 21] | 1 | 

“And” between values parts separate entries of the source, which are not always exact repeats. Equal entries are not always repeated.
